Experimental data as given in publication PMC10163288.
The list shows a part of the results.

B1: il10ra_site1_normal_mot_HHH_b2_07569_000000265_0001_38_56_H_._HHH_b1_00906_af2_0001_0000300009_0000001_0 (protein)
chain: SSSSDLEEEVEELLEELKKAKTQEEFAELALRVLRVALESQDPELVQEVWEVIKEVFKRLSSSSS
B2: il10ra_site1_normal_mot_HHH_b1_05672_af2_000000246_0001_1_19_H_._HHH_b2_02879_af2_0001_0000300011_0000002_0 (protein)
chain: SSSSDEEQRVAELLLRVVRLLYEGNPEEAEEVLEEARRLAEELGDEELRRYVEIAENFVRSSSSS
B3: il10ra_site1_normal_mot_8756ee2cf497b5429c717dfc0c0bcfd6_0001_000000186_0001_1_13_H_._HHH_b1_01230_0001_0000200009_0000001_0_1_af2pred_dldesign_0_af2pred (protein)
chain: SSSSSSQEVVDLLKEAAELIYEGKLEEAKEVLEKARELAEKLNDKVALAAIDYLLSQLEKSSSSS
B4: il10ra_site1_sap_24_mot_HHH_b2_05797_000000226_0001_1_19_H_._HHH_b1_08678_0001_0000400027_0000001_0_0001 (protein)
chain: SSSSNRSQEIYELLREAAELHHEGDPEEARKVLEEAEELAEEAGDMVMLMVIRWMLRRVNSSSSS
B5: il10ra_site1_normal_mot_e1dd4851c59bc1cdde016f988f6856bd_0001_1_000000200_0001_16_31_H_._HEEHE_2159_0002_0000200020_0000001_0_af2pred_0001 (protein)
chain: SDEELAALAIRLVAEKAGVPSVEVTTSNNEIHVTLEGDDRAVERAERQIRFLSEAANVPVTIEIE
B6: il10ra_site1_sap_24_mot_HHH_b1_05826_af2_000000294_0001_1_18_H_._HHH_b1_05303_0001_0000100002_0000001_0_0001_af2pred_0001 (protein)
chain: SSSSDEKKAFRLYIEAFLALEKGNPEEARELLEEALKIAEELGDEALVRAIRHLLELVERKSSSS
B7: il10ra_site1_normal_mot_HHH_b1_01821_000000158_0001_23_39_H_._HHH_b2_01117_af2_0001_0000100001_0000002_0 (protein)
chain: SSSSSEEEERVEELIKELEELLRRGDFERASRVAQEALRLAFRLNNPELLQAIWRVFKEGSSSSS
B8: il10ra_site1_normal_mot_HHH_b1_05357_000000034_0001_23_39_H_._HHH_b2_02453_0001_0000200008_0000001_0_af2pred_0001 (protein)
chain: SSSSDVEEELEELLEEAKRIEDLHRANYVLARAFALASRRKDPELEEEVKEAAKEITERGSSSSS
B9: il10ra_site1_sap_22_mot_HHH_b2_04679_000000194_0001_21_38_H_._HHH_b1_05937_af2_0001_0000100001_0000001_0_0001_af2pred_0001 (protein)
chain: SSSSSEEEAVKLLARAIRHLIKLGDEEAAKLALEILERLARQLNDEEAEEIVEELQKLLESSSSS
B10: il10ra_site1_normal_mot_HHH_b2_06255_000000043_0001_1_20_H_._HHH_b2_01548_af2_0001_0000300011_0000001_0 (protein)
chain: SSSSSSEEEVKELLEEARELHERGNPDEAFKVLRRAIEIAAENNDPELQKLVIRVSRELVSSSSS
B11: il10ra_site1_sap_21_mot_HHH_b2_07579_000000275_0001_1_19_H_._HHH_b2_05428_0001_0000300025_0000001_0_0001 (protein)
chain: SSSSTLAQEVAELLRRVVELDNEGDKEEAERLLEEAKELAEEANSDVLRIQVEYLERLLNSSSSS
B12: il10ra_site1_normal_mot_HHH_b2_01649_af2_000000191_0001_40_56_H_._HHH_b2_05746_0001_0000300010_0000001_0 (protein)
chain: SSSSSSSEVSLRAAKVALEALLELGDEEMFEVALRFHESLLKDAGNPELAEELRRFAEELSSSSS
B13: il10ra_site1_sap_26_mot_HHH_b2_08231_af2_000000290_0001_1_18_H_._HHH_b1_03552_af2_0001_0000800016_0000002_0_0001 (protein)
chain: SSSSSEEQRELFELLRRVAELDHEGNPEEAREVLKEAQELAEELGNDVARMQIEYLQKHLSSSSS
B14: il10ra_site1_normal_mot_HHH_b1_02080_af2_000000254_0001_23_39_H_._HHH_b1_03859_0001_0000800012_0000001_0_af2pred_dldesign_0_af2pred (protein)
chain: SSSSDEALLQRARELHLRASAAIAAGNKEEAAKLLAELEKLAEETDDPDIKRALDYLKAVASSSS
B15: il10ra_site1_sap_15_mot_HHH_b1_01307_000000115_0001_1_18_H_._HHH_b2_08110_0001_0000100001_0000001_0_0001 (protein)
chain: SSSSDEKWEEFQRILEKAAELKNSGNPEEAKKLLEELEEELEELGNWIALRAARHLLRAISSSSS
B16: il10ra_site1_sap_17_mot_HHH_b1_04514_000000156_0001_1_18_H_._HHH_b2_07389_af2_0001_0000100005_0000001_0_0001 (protein)
chain: SSSSDFEEYIEMTRMFAEALARAGDPEAAKKMIKAAIDMARRGNNEELLEELEELLERLRSSSSS
B17: il10ra_site1_sap_24_mot_HHH_b1_05099_000000057_0001_40_58_H_._HHH_b1_05528_0001_0000100006_0000001_0_0001_af2pred_0001 (protein)
chain: SSSSSSDVEEAVRKLLHAAKQISDEEALKLALRDAERIARANNDEELEELVEKVKEELSSSSSSS
B18: il10ra_site1_normal_mot_HHH_b2_00984_000000042_0001_1_20_H_._HHH_b1_00336_0001_0000500031_0000002_0 (protein)
chain: SSSSSEEEVEELLREAEELLENGNPQEAIEVLARASQIAHRASNEELLQKVWELIKKIAEASSSS
B19: il10ra_site1_normal_mot_HHH_b2_01447_af2_000000258_0001_1_20_H_._HHH_b2_02600_af2_0001_0000100009_0000002_0_af2pred_0001 (protein)
chain: SSSSSTEEVMELARRAAELLNEGDPEEAQRVAEEAVELAEELGNFALIASARFVLEIIERSSSSS

target: il10ra, Q13651; assay: yeast display titration

Row | Binder | apparent Kd
1 | B1 | inactive: no binding seen
2 | B2 | inactive: no binding seen
3 | B3 | inactive: no binding seen
4 | B4 | inactive: no binding seen
5 | B5 | inactive: no binding seen
6 | B6 | inactive: no binding seen
7 | B7 | inactive: no binding seen
8 | B8 | inactive: no binding seen
9 | B9 | inactive: no binding seen
10 | B10 | inactive: no binding seen
11 | B11 | inactive: no binding seen
12 | B12 | inactive: no binding seen
13 | B13 | inactive: no binding seen
14 | B14 | inactive: no binding seen
15 | B15 | inactive: no binding seen
16 | B16 | inactive: no binding seen
17 | B17 | inactive: no binding seen
18 | B18 | inactive: no binding seen
19 | B19 | inactive: no binding seen

A few values from the entries so far:
apparent Kd with B1 is entered as inactive: no binding seen
apparent Kd with B17 is entered as inactive: no binding seen
